The source of these data is US5432165A, “Methods for the treatment of infection caused by Hepatitis B virus (HBV)” (priority 1992, dated 1995).

The experiment relates to hepatitis B virus. As to the kind of experiment: Oral FIAU in immune-competent patients with chronic hepatitis B: HBV DNA and HBV DNA polymerase. The format is in vivo, human. The conditions noted are these: 0.25 mpk, individual patients 1B-6B. The procedure:
To assess the antiviral activity of FIAU against hepatitis B virus, up to 24 patients with chronic hepatitis B will be treated with oral FIAU in doses of 0.05, 0.10, 0.25 or 0.50 mg/kg-day in three divided doses daily for four weeks. Six patients, of which only three can be previous interferon failures, will be initially dosed at 0.10 mg/kg-day. Depending on tolerance and efficacy, the next six patients will be entered at 0.05 or 0.25 mg/kg-day.
This study is an open and uncontrolled evaluation of oral FIAU in the treatment of chronic hepatitis B. Up to four dose cohorts of six patients each will be sequentially studied starting at 0.10 mg/kg-day. Patients will take the medication three times per day for four weeks. Depending on efficacy and tolerance, the next dose cohort will be either 0.05 or 0.25 mg/kg-day.
Patients who meet the eligibility criteria will start on therapy, generally as outpatients one to two weeks after the in-hospital evaluation. Up to four doses will be sequentially evaluated. The initial six patients will receive 0.10 mg/kg-day for four weeks. […]
The FIAU will be administered by mouth in three equally divided doses daily. […] Dosing compliance will be monitored by measuring the residual FIAU solution returned at the weekly outpatient visit.
Activity of FIAU against hepatitis B virus will be assessed by monitoring levels of HBV DNA. […]

Structures are written as SMILES. Further values from the same series stand in other lists.

With `O=c1[nH]c(=O)n([C@@H]2O[C@H](CO)[C@@H](O)[C@@H]2F)cc1I` [FIAU, 1-(2'-deoxy-2'-fluoro-β-D-arabinofuranosyl)-5-iodouracil], the “HBV DNA” value (Month 1 (follow-up)) amounted to 116.6 pg/mL and the “HBV DNA” value (Week 5 (after 4-week treatment)) is 96.3 pg/mL.
